# Data taken from publication PMC9166763.
# The chains behind the UniProt entries cited, without tags or fusion partners. Residues count along the entry.
# UniProt P11021, residues 19-654: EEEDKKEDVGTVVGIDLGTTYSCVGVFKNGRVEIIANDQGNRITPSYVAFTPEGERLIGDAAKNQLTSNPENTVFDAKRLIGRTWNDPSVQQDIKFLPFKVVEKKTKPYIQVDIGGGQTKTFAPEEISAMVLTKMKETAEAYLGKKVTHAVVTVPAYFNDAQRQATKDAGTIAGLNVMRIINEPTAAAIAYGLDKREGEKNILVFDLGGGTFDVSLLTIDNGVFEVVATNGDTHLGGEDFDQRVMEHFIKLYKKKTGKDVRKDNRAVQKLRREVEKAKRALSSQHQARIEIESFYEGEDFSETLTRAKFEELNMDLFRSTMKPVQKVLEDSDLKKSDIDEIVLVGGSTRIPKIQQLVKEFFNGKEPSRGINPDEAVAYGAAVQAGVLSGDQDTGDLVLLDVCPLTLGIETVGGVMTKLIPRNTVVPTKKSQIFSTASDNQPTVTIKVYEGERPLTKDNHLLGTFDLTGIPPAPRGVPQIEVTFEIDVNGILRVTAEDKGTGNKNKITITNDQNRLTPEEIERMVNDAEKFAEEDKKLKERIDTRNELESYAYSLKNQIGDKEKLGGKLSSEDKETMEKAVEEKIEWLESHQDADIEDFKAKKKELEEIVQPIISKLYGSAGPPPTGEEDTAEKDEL
# No constants are given. Whether binding was seen depends on the method and setting. In cells and extracts the contact can be indirect. Here binding means that the protein was enriched with, or labelled near, the bait; the list need not be complete.
# Biological target: T1, Decoy receptor 2 (DcR2), human, endogenous in renal biopsy tissue (human (endogenous in renal biopsy tissue)) (UniProt Q9UBN6)
# T1 sequence: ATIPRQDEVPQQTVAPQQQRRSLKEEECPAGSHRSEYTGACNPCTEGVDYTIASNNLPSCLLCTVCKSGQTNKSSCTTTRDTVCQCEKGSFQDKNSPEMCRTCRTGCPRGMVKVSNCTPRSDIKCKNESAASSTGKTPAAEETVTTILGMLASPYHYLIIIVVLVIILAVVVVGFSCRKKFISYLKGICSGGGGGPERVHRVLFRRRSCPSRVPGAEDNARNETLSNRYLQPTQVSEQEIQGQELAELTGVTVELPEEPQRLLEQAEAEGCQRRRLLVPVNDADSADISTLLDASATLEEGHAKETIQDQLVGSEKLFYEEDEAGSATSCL
# Test: affinity purification with mass spectrometry; lysed renal tissue of 18 patients with DN and 18 healthy controls incubated overnight with 2 ug anti-DcR2 antibody at 4 °C, protein A + G agarose 3 h at 4 °C, tryptic peptides by LC-MS/MS; proteins with intensity ratio >2 (p < 0.05) taken as DcR2-interacting
substance,measurement,value
"Glucose-related protein 78 kDa (GRP78), human, endogenous in renal biopsy tissue (from UniProt P11021 19-654)",binding,binds
